Test results taken from article PMC7948500, “Comparative interactomes of HSF1 in stress and disease reveal a role for CTCF in HSF1-mediated gene regulation” (The Journal of Biological Chemistry, 2020).
No constants are given. Whether binding was seen depends on the method and setting. Binding seen in cells or lysates may run through a third protein. A yes stands for co-enrichment or nearness to the bait. Other partners may have been found.

By UniProt entry, the sequences of proteins in these tests, tags left out. Where a name states a change or a piece, a line headed by the entry shows the natural chain unless it says otherwise. Chains listed by the source or under a name are the forms on record and can include a tag or linker.
UniProt P38532: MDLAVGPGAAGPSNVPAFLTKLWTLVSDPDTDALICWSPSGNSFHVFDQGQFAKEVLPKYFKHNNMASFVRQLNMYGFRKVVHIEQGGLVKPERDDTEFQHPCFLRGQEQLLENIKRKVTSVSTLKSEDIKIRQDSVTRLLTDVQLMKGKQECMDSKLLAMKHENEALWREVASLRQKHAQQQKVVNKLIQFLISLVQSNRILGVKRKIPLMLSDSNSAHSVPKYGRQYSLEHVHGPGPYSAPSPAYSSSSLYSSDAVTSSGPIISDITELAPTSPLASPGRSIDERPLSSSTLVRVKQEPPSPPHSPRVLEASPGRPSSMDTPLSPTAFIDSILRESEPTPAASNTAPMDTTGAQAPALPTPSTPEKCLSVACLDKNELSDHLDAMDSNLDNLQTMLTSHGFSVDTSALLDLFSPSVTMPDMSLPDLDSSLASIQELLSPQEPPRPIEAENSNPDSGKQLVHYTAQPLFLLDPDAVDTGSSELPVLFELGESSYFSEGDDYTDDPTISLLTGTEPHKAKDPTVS
UniProt Q9R1P4: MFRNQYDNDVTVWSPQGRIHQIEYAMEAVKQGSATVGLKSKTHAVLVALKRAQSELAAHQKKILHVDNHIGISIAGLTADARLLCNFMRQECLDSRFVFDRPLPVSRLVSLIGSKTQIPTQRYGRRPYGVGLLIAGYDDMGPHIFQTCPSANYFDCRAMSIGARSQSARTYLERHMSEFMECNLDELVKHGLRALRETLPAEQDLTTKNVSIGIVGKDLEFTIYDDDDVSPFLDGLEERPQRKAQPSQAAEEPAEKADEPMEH
UniProt Q9QUM9: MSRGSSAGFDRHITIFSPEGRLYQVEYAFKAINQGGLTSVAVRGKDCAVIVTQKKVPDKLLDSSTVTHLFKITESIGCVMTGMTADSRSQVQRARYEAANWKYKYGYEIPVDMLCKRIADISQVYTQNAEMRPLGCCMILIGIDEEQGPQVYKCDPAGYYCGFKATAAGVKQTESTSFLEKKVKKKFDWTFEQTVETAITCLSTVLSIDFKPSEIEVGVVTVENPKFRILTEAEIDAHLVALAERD
UniProt Q8CG46: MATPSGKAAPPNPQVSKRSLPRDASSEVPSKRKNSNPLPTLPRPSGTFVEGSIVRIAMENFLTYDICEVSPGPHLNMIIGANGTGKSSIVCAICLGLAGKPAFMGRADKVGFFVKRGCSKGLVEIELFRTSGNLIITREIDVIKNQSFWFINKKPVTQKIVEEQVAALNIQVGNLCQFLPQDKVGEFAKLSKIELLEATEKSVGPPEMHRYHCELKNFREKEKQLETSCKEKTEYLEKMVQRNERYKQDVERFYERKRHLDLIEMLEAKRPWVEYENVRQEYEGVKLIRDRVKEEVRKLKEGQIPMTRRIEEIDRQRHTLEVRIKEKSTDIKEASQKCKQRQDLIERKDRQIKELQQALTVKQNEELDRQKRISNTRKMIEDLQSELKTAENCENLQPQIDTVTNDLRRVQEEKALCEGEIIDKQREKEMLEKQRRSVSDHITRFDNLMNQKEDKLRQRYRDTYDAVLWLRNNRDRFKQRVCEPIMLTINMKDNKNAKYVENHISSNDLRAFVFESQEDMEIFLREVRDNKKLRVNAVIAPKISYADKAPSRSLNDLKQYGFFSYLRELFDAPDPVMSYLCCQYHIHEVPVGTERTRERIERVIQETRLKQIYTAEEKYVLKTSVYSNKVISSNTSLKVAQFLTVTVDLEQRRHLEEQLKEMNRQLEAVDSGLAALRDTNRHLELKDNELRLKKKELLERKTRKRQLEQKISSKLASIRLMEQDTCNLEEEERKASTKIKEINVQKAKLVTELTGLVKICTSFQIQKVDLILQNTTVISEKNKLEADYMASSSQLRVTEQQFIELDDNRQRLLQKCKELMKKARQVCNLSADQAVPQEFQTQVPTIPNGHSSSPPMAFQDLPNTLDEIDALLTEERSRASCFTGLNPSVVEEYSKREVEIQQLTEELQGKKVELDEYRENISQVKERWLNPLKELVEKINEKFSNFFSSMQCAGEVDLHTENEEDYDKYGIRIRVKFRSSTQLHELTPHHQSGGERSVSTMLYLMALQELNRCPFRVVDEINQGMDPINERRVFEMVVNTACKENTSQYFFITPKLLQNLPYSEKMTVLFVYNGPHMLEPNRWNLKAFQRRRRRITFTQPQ
UniProt P46935: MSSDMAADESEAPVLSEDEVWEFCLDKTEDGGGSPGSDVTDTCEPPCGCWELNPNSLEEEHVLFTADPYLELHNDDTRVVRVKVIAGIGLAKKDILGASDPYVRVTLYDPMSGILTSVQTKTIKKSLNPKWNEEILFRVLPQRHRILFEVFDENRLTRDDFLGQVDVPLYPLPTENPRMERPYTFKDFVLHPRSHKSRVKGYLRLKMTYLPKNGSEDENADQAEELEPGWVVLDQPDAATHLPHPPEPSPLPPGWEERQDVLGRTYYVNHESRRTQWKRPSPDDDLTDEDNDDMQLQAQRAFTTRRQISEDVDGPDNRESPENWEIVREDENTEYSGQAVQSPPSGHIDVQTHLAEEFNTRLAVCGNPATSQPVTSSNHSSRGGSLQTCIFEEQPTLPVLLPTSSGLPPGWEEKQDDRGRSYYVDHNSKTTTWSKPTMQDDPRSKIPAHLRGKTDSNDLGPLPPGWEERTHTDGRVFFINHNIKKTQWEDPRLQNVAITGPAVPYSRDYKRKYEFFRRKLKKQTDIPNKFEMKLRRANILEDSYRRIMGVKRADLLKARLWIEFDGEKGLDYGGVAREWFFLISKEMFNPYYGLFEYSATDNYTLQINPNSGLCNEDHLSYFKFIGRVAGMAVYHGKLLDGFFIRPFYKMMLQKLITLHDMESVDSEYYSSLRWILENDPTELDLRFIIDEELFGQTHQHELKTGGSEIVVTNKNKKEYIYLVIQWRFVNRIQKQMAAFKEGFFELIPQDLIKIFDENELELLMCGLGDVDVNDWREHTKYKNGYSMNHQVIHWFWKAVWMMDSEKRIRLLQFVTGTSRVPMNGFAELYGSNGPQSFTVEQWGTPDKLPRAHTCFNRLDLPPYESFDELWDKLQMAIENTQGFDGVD
UniProt Q9Z2U1: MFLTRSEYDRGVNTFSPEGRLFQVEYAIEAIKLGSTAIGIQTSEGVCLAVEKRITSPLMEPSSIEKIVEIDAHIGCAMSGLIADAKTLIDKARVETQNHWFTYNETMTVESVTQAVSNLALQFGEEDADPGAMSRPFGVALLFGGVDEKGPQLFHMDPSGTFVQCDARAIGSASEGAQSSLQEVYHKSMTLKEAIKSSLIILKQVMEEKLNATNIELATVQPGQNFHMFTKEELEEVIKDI
UniProt Q9D1C2: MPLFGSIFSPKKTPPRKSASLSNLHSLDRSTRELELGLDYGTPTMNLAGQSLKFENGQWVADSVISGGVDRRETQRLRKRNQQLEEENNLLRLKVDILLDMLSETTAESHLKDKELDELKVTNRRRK
UniProt Q9Z2U0: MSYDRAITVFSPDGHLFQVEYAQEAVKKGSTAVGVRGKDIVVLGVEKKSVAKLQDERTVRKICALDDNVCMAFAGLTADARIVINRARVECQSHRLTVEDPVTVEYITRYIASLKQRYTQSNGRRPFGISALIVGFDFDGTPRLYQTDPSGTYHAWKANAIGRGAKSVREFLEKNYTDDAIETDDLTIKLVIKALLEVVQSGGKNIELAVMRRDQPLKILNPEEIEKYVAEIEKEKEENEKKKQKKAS
JHD2C (Q69ZK6, form named): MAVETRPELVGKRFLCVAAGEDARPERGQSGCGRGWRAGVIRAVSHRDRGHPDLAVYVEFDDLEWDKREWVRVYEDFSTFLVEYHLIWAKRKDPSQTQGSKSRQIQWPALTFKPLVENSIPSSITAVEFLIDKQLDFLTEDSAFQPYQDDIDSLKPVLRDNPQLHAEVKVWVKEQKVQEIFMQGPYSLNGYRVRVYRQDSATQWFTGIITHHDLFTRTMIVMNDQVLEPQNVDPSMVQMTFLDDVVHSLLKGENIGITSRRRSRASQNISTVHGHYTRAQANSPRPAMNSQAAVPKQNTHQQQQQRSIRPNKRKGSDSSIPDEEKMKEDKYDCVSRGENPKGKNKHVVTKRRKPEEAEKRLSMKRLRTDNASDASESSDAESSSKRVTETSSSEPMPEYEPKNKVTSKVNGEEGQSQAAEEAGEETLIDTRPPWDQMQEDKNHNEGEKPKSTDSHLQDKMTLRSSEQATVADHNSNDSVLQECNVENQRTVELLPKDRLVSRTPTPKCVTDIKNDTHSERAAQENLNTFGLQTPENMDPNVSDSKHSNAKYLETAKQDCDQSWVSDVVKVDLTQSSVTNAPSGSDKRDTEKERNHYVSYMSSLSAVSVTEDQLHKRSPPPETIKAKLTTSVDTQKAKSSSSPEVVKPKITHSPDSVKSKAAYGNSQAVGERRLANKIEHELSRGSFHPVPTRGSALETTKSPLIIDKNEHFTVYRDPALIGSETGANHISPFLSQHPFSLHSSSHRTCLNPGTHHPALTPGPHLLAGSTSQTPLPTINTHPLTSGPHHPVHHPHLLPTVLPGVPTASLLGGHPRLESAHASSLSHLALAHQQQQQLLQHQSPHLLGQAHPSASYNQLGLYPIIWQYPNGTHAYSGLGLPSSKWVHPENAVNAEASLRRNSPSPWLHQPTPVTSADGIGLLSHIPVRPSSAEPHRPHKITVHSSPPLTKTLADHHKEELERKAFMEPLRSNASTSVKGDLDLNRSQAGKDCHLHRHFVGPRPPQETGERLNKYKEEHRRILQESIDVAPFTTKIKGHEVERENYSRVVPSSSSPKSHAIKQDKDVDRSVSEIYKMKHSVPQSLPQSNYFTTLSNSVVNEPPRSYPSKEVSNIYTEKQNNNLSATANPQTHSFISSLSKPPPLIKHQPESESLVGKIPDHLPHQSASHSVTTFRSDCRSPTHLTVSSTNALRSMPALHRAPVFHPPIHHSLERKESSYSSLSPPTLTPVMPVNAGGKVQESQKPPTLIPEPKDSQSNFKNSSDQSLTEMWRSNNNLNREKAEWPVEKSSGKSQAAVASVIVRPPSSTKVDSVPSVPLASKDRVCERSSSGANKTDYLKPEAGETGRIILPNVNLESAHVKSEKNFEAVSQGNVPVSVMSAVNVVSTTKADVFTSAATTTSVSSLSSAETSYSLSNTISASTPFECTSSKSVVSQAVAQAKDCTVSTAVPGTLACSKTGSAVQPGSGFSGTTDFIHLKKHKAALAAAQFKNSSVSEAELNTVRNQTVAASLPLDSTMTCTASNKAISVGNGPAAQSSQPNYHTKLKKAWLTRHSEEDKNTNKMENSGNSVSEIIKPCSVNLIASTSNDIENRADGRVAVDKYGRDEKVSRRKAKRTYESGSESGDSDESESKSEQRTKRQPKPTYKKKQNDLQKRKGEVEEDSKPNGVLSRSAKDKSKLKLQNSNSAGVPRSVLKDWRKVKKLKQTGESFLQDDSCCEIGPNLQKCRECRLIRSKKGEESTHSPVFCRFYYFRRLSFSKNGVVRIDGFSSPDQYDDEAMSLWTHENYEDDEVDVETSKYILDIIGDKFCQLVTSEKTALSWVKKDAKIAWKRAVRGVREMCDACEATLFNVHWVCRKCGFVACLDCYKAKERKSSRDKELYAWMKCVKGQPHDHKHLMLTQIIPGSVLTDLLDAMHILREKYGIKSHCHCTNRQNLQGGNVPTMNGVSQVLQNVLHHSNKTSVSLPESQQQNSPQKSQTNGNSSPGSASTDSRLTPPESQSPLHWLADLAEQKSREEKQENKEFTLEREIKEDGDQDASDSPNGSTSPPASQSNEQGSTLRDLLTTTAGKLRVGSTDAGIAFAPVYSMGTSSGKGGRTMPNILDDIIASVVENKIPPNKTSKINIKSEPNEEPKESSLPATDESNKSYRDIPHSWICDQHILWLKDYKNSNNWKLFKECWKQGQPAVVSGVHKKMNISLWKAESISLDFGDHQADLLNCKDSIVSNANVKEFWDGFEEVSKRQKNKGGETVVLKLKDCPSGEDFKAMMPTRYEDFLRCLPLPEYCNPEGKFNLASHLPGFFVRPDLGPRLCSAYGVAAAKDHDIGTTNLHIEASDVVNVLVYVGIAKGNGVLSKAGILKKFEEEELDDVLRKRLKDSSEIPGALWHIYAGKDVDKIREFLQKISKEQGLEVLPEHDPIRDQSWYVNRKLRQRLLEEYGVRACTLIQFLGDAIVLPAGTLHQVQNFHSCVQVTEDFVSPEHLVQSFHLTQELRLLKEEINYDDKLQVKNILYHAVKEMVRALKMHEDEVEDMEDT

B1: importin 4 (protein, UniProt Q8VI75 1-1082)
chain: MEPAGLEQILKELLLPDTERIRRATEQLQTILRDPAALPALFDLLATATDSQIRQFAAVLTRRRLNNRWRRLAPEQRESLKSLVLTALQKETVHSVSVSLAQLSATIFRKEGLQGWPQFMNLLQHSTHSSHSPEKEVGLLLLSVVVSSQPEAFHAHQHELLQLLNETLSDVSFPGVLFYSLRTLTAIARYVRPDDVSLARMLVPKVVTALRTLIPLDEVKACEALEALDEMLETELPIINPHLSEVLTFCLEVAKNVALGEPLRVRVLCCLTFLVKVKSKALLKNRLVPPLLHALFPLMAAEPPMGQLDPEDQDSDDDDLEIGLMGETPKHFAVQVVDMLALHLPPEKLCPHVMPMLEEALRSEDPYQRKAGFLVLAVLSDGAGDHIRQRLLYPLLQIVCKGLDDPSQIVRNAALFALGQFSENLQPHISSYSEEVMPLLLSYLKSVPMGNTHHLAKACYALENFVENLGPKVQPYLPELMECMLQPLKNPSKARTKELAVSAIGAIATAAQDSLLPYFPTIMDLLREFLLTGHEDFHLVQIQSLETLGVLARALGESMKPLAEECCQLGLGLCIHIDDPDVRRCTYSLFAALSGLMGEGLGPYLPQITTLMLLSLRSTEGIVPQYDGISSFLLFDDDSEAEEEEELMDEDMEEEGDDSEISGYSVENAFFDEKEDTCTALGEISMNTCVAFLPFMDATFDEVYKLLECPHMNVRKSAYEALGQFCCALHKASQRSSSDPSSSPVLQTSLARVMPAYMQAVKVERERPVVMAVLESLTGVLRTCGSLALQPPGRLSELCNVLKAVLQKKTACQDAEEDDDEDDDQAEYDAMLLEHAGEAIPVLAATAGGHAFAPFFATFLPLLLCKTKQSCTVAEKSFAVGTLAESIQGLGTASAQFVSRLFPVLLNNAREADPEVRSNAIFGLGVLAEHGGCPAQDHFPKLLGLLLPLLARERHDRVRDNICGALARVLMASPVGKTEPQVLATLLRALPLKEDMEEWLTIGHLFSFLHQNNPEQVVDVASELLRICSLILPDNRIPPDTKAALLLLLTFLAKQHTDSFHTALGSLPNDKAQELQAMMGLT
B2: Nup93 (protein, UniProt Q8BJ71 1-819)
chain: MDTEGFGELLQQAEQLAAETEGISELPHVERNLQEIQQAGERLRSRTLTRTSQETADVKASVLLGSRGLDISHISQRLESLSAATTFEPLEPVKDTDIQGFLKNEKDNALLSAIEESRKRTFGMAEEYHRESMLVEWEQVKQRILHTLLASGEDALDFTQESEPSYIGDVNPPGRSSLDSIEMAYARQIYIYNEKIVSGHLQPNLVDLCASVAELDDKSISDMWAMVKQMTDVVLTPATDALKSRSSVEVRMDFVKQALGYLEQSYKNYTLVTVFGNLHQAQLGGVPGTYQLVRSFLNIKLPAPSPGLQDGEVEGHPVWALIYYCMRCGDLLAASQVVSRAQHQLGEFKTWFQEYMNSKDRRLSPATENKLRLHYRRALRNNTDPYKRAVYCIIGRCDITDNQSEVADKTEDYLWLKLNQVCFDDDGTSSPQDRLTLSQFQKQLLEDYGESHFTVNQQPFLYFQVLFLTAQFEAAIAFLFRMERLRCHAVHVALVLFELKLLLKSSGQSAQLLSHEPGDPPCMRRLNFVRLLMLYTRKFESTDPREALQYFYFLRDEKDSQGENMFLRCVSELVIESREFDMILGKLENDGSRKPGVIDKFTSDTKPIINKVASVAENKGLFEEAAKLYDLAKNADKVLELMNKLLSPVVPQISAPQSNKERLKNMALSIAERYRAQGISANKFVDSTFYLLLDLITFFDEYHSGHIDRAFDIIDRLKLVPLNQESVEERVAAFRNFSDEIRHNLSEVLLATMNILFTQFKRLKGTSPSSATRPQRVIEDRDSQLRSQARALITFAGMIPYRTSGDTNARLVQMEVLMN
B3: PSA2 (protein, UniProt P49722 1-234)
chain: MAERGYSFSLTTFSPSGKLVQIEYALAAVAGGAPSVGIKAANGVVLATEKKQKSILYDERSVHKVEPITKHIGLVYSGMGPDYRVLVHRARKLAQQYYLVYQEPIPTAQLVQRVASVMQEYTQSGGVRPFGVSLLICGWNEGRPYLFQSDPSGAYFAWKATAMGKNYVNGKTFLEKRYNEDLELEDAIHTAILTLKESFEGQMTEDNIEVGICNEAGFRRLTPTEVRDYLAAIA
B4: TRI56 (protein, UniProt Q80VI1 1-734)
chain: MNSKVSSPTLLEALSSDFLACKICLEQLHTPKTLPCLHTYCQDCLAQLDIGGQVRCPECREIVPVPAEGVAAFKTNFFVNGLLDLVKARAPGDVHSGKPTCALCPLVGGKSSGGPATARCLDCADDLCQACADGHRCSRQTHKHRVVDLVGYRAGWYDEEARERQASQCPQHPGEALCFLCQPCSQLLCKDCRLGPHIDHPCLPLAEAVRSRKPGLEELLAGVDSNLVELEATRVAEKEALALLREQAASVGTQVEEAAERILKSLLAQKQEVLGQLRALVEAAEEATRERLTKIERQEQVAKAAAAFARRVLSLGLEAEILSLEGAITQRLRQLQDAPWTSGPTRCVLPQLELHPGLEDKNCHLLRLIFEEPKQSPKDSGKGGAGTQGGDEAQGQGDDRTKIGKQGGAQPLTPKEGKDQNPQEDDGVFIERGNRPNKKKKCKGRGKSVSREPSPILRPNLEGSGLLPRPVFSWSFPTRMPGDKRSPRITGLCPYGPQEILVADEQNRVLKRFSLNGDYKGTVQVPEGCSPCSVAALQNAVAFSANAKLYLVSPDGEIQWRRSLSLTQSSHAVAAMPCGDRVAVSVAGHVEVYKKDGSLATRFIPGGKASRGQRALVFLTTSPQGNFVGSDWQQNSVVFCDGLGQVIWEYKGPGLHGCQPGSVSVDKKGYIFLTLREVNKVVILDPKGSLLGDFLTAYHGLEKPRVTTMVDGKYLVVSLSNGTIHVFRVRFPDS
B5: PSA4 (protein, UniProt Q9R1P0 1-261)
chain: MSRRYDSRTTIFSPEGRLYQVEYAMEAIGHAGTCLGILANDGVLLAAERRNIHKLLDEVFFSEKIYKLNEDMACSVAGITSDANVLTNELRLIAQRYLLQYQEPIPCEQLVTALCDIKQAYTQFGGKRPFGVSLLYIGWDKHYGFQLYQSDPSGNYGGWKATCIGNNSAAAVSMLKQDYKEGEMTLKSALALAVKVLNKTMDVSKLSAEKVEIATLTRESGKTVIRVLKQKEVEQLIKKHEEEEAKAEREKKEKEQREKDK
B6: importin 5 (protein, UniProt Q8BKC5 1-1097)
chain: MAAAAAEQQQFYLLLGNLLSPDNVVRKQAEETYENIPGRSKITFLLQAIRNTTAAEEARQMAAVLLRRLLSSAFDEVYPALPSDVQTAIKSELLMIIQMETQSSMRKKICDIAAELARNLIDEDGNNQWPEGLKFLFDSVSSQNMGLREAALHIFWNFPGIFGNQQQHYLDVIKRMLVQCMQDQEHPSIRTLSARATAAFILANEHNVALFKHFADLLPGFLQAVNDSCYQNDDSVLKSLVEIADTVPKYLRPHLEATLQLSLKLCGDTNLNNMQRQLALEVIVTLSETAAAMLRKHTSLIAQTIPQMLAMMVDLEEDEDWANADELEDDDFDSNAVAGESALDRMACGLGGKLVLPMIKEHIMQMLQNPDWKYRHAGLMALSAIGEGCHQQMEGILNEIVNFVLLFLQDPHPRVRYAACNAVGQMATDFAPGFQKKFHEKVIAALLQTMEDQGNQRVQAHAAAALINFTEDCPKSLLIPYLDNLVKHLHSIMVLKLQELIQKGTKLVLEQVVTSIASVADTAEEKFVPYYDLFMPSLKHIVENAVQKELRLLRGKTIECISLIGLAVGKEKFMQDASDVMQLLLKTQTDFNDMEDDDPQISYMISAWARMCKILGKEFQQYLPVVMGPLMKTASIKPEVALLDTQDMENMSDDDGWEFVNLGDQQSFGIKTAGLEEKSTACQMLVCYAKELKEGFVEYTEQVVKLMVPLLKFYFHDGVRVAAAESMPLLLECARVRGPEYLTQMWHFMCDALIKAIGTEPDSDVLSEIMHSFAKCIEVMGDGCLNNEHFEELGGILKAKLEEHFKNQELRQVKRQDEDYDEQVEESLQDEDDNDVYILTKVSDILHSIFSSYKEKVLPWFEQLLPLIVNLICPQRPWPDRQWGLCIFDDIVEHCSPASFKYAEYFISPMLQYVCDNSPEVRQAAAYGLGVMAQFGGDNYRPFCTDALPLLVRVIQAPEAKTKENVNATENCISAVGKIMKFKPDCVNVEEVLPHWLSWLPLHEDKEEAVQTFSYLCDLIESNHPIVLGPNNTNLPKIFSIIAEGEMHEAIKHEDPCAKRLANVVRQVQTSGGLWTECIAQLSPEQQAAIQELLNSA
B7: PSA3 (protein, UniProt O70435 1-255)
chain: MSSIGTGYDLSASTFSPDGRVFQVEYAMKAVENSSTAIGIRCKDGVVFGVEKLVLSKLYEEGSNKRLFNVDRHVGMAVAGLLADARSLADIAREEASNFRSNFGYNIPLKHLADRVAMYVHAYTLYSAVRPFGCSFMLGSYSANDGAQLYMIDPSGVSYGYWGCAIGKARQAAKTEIEKLQMKEMTCRDVVKEVAKIIYIVHDEVKDKAFELELSWVGELTKGRHEIVPKDIREEAEKYAKESLKEEDESDDDNM

These molecules were tested against heat shock transcription factor 1 (endogenous, mouse striatal cells) (mouse (endogenous in STHdh striatal cells)) (UniProt P38532) (assay: affinity purification with mass spectrometry; endogenous untagged HSF1 immunoprecipitated with polyclonal anti-HSF1 covalently linked to DynaG beads from STHdh Q7 (control), Q7 heat shock (42 °C, 30 min) and Q111 (HD) lysates, no cross-linker; IgG IP as control; hits at least twofold over IgG, p < 0.05, ProteinTeller probability >= 0.8; quantitative LC-MS/MS).

binding, binds:
RuvBl2 (from UniProt Q9WTM5 1-463)
RuvBl1 (from UniProt P60122 1-456)
importin β (from UniProt P70168 1-876)
PSA1 (from UniProt Q9R1P4 1-263)
importin 7 (from UniProt Q9EPL8 1-1038)
sorting nexin 9 (from UniProt Q91VH2 1-595)
PSA6 (from UniProt Q9QUM9 1-246)
SMC5 (from UniProt Q8CG46 1-1101)
Nedd4 (from UniProt P46935 1-887)
PSA5 (from UniProt Q9Z2U1 1-241)
chibby family member 1 (from UniProt Q9D1C2 1-127)
PSA7 (from UniProt Q9Z2U0 1-248)
X-ray repair cross complementing 5 (from UniProt P27641 1-732)
importin 9 (from UniProt Q91YE6 1-1041)
JHD2C (from UniProt Q69ZK6 1-2531)
BCL2-associated athanogene 3 (from UniProt Q9JLV1 1-577)
rapamycin-insensitive companion of mTOR (from UniProt Q6QI06 1-1708)

Target: heat shock transcription factor 1 (endogenous, mouse striatal cells) (mouse (endogenous in STHdh striatal cells)) (UniProt P38532)
Assay: as above
Remark: another data set of the same source

binding, binds:
B1
B2
B3
B4
B5
B6
B7
